Assay results reported in article PMC9481463.
No constants are given. Whether binding was seen depends on the method and setting. Binding seen in cells or lysates may run through a third protein. Some results given as binding are weak or reduced against the parent protein; the word gives no strength. For some of these results: Sequences can lack the tags named with a protein.

Sequences of proteins named here, by UniProt entry; tags and fusion partners are left off.
UniProt P55884: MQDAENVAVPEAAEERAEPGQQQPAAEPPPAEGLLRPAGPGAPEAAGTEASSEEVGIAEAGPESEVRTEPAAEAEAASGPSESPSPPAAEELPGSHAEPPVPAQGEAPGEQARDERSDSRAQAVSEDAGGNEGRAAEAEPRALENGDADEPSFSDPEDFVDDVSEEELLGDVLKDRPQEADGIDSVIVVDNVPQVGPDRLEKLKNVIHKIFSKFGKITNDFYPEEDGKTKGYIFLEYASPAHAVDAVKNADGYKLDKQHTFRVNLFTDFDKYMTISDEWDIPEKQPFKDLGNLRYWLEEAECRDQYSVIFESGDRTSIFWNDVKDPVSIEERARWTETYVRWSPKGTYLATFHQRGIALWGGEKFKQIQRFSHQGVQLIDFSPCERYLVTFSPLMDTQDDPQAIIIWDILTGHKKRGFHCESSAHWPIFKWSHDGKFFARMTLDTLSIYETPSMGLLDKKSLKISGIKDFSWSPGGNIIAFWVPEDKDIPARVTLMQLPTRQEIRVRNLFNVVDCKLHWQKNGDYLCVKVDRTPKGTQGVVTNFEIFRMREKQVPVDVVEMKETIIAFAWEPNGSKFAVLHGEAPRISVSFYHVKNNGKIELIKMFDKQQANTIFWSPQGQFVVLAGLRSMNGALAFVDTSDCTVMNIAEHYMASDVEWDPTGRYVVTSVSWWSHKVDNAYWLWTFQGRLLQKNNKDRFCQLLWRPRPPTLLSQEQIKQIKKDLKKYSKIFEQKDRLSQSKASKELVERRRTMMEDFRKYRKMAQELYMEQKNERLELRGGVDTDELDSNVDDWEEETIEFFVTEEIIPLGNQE
UniProt O00303: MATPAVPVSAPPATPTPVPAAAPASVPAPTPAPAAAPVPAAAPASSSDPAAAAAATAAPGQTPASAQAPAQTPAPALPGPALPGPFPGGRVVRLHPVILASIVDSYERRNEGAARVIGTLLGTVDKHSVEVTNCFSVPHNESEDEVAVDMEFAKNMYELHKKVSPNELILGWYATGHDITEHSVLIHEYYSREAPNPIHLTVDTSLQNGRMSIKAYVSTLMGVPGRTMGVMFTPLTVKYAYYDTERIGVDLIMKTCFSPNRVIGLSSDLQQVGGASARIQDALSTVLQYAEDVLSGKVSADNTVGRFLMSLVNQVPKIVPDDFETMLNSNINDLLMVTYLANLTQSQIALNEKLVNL
UniProt P11940: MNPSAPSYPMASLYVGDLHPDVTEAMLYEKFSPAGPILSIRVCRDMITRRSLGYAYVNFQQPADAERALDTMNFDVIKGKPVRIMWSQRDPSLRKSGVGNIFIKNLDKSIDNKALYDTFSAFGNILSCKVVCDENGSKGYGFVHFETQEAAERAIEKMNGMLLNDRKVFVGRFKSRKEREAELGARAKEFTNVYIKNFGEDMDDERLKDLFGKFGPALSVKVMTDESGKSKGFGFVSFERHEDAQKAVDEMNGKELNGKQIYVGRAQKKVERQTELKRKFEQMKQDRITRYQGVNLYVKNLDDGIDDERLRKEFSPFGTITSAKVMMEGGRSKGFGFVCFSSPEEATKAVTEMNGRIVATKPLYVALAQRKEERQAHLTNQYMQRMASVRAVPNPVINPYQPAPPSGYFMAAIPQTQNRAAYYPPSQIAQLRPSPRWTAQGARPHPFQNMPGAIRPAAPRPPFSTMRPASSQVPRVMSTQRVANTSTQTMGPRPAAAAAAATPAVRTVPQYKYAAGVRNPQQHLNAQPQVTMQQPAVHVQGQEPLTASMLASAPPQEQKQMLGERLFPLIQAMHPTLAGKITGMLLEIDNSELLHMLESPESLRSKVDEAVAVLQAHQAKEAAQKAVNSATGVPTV

Columns and labels:
[1] = biological target: T1, purine-rich element binding protein alpha (PURα) (human (endogenous in KYSE510)) (UniProt Q00577); assay: co-IP; endogenous proteins in KYSE510 cells, immunoprecipitation of PURα, blots of candidate proteins; with and without RNase
T1 sequence: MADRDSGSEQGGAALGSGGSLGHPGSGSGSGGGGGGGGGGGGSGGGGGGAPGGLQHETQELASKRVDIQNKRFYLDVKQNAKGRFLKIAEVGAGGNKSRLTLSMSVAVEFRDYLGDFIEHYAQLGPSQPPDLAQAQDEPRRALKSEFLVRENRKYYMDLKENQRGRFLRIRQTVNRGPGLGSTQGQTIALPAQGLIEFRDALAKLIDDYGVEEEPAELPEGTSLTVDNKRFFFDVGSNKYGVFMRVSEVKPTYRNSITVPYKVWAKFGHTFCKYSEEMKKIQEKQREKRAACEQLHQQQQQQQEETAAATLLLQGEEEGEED

PURα-Flag (human) = biological target: T2, PURα-Flag (human) (UniProt Q00577); assay: co-IP; PURα-Flag and PABPC1-HA overexpressed in 293 cells; which one was precipitated is not stated
T2 sequence: T1 sequence

Row | Substance | binding [1] | binding (PURα-Flag (human))
1 | EIF3B (from UniProt P55884 1-814) | binds | –
2 | EIF3F (from UniProt O00303 1-357) | binds | –
3 | PABPC1 (from UniProt P11940 1-636) | binds | –
4 | PABPC1-HA (from UniProt P11940 1-636) | – | binds
